# From PubChem BioAssay AID651595 (National Center for Advancing Translational Sciences (NCATS), 2012)
# Out of some 1,100 compounds screened, fewer than 10 were called active. About 6% were inconclusive and are not listed. Calls follow the shape of the dose curve; as a rule, active = well fitted cell-killing curve with a large enough effect; inconclusive = small, poorly fitted or top-dose-only effect; inactive = flat fitted curve, though single readings scatter. The list shows a part of the results.
# Test: qHTS of Nrf2 Activators: Hit Validation in Cytotox Assay;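 also: compound exposure lasted 24 hours before the ATP readout; 0% is about no effect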
# Conditions: Cell viability counter-screen for Nrf2 activator hits; series mostly up to 46.1 µM; activity change, negative = cytotoxicity: at the top concentration
# How it was run: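 AREc32_fluc cells plated overnight, then treated at 7 concentrations for 24 h at 37 °C. Viability from intracellular ATP by CellTiter-Glo luminescence after 30 min at room temperature; cytotoxic compounds flagged active.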
SMILES,"activity change, negative = cytotoxicity",Potency
O=C(NCc1ccco1)c1cccnc1-c1nc2ccccc2s1,inactive: -4.16%,
Fc1cccc(Nc2nc3ccccc3n3cnnc23)c1,inactive: 2.44%,
O=C(/C=C/c1ccco1)Nc1cccnc1Cl,inactive: -10.5%,
COC(=O)CSc1nc2ccccn2c(=O)c1C=O,inactive: 8.53%,
Cc1cccc2c(=O)n(C(=O)c3ccccc3)c(N)nc12,inactive: -2.75%,
O=Cc1c(NCc2ccco2)nc2ccccn2c1=O,inactive: 7.6%,
CC(=O)Nc1ccc2nc(NC(=O)c3ccco3)sc2c1,inactive: -23.1%,
COc1cc2c(cc1Cl)/C(=C\CCN(C)C)c1ccccc1S2,inactive: -16.9%,
O=C(CSc1nc2c(sc3ccccc32)c(=O)n1-c1ccccc1)NCc1ccco1,inactive: 2.64%,
Cc1ccc(C(=O)N/N=C/c2ccc(-c3ccc(Br)cc3[N+](=O)[O-])o2)o1,inactive: 0.605%,
COc1ccc(Cc2c(-c3ccccc3)nc3c4ccccc4ccn23)c(C)c1,inactive: -9.88%,
N/C(=N\OC(=O)c1ccco1)c1cccc(Br)c1,inactive: 3.8%,
C=CCn1c(=NC(=O)c2cc(Cl)sc2Cl)sc2cc(S(N)(=O)=O)ccc21,inactive: -1.89%,
CC(=O)Cn1nnc2sc(-c3ccccc3)cc2c1=O,,inactive
O=[N+]([O-])c1ccccc1/C=N/Nc1nccnc1Cl,inactive: -2.15%,
O=C(c1ccco1)c1cn(CC(=O)N2CCCc3ccccc32)c2ccccc12,inactive: -12%,
COc1cc2c(c(Br)c1N)-c1cc(Br)c(N)cc1C2=O,inactive: 6.97%,
Cc1ccc(OCC(=O)Nc2cccc3ccccc23)c([N+](=O)[O-])n1,inactive: -0.354%,
c1ccc(Cn2ncc3c(NCc4ccco4)ncnc32)cc1,inactive: -5.44%,
COc1cccc(C(=O)Nc2cc(C)c3c(=O)oc4ccccc4c3n2)c1,inactive: 6.12%,
O=C(N/N=C\c1ccc(Cl)cc1)c1sccc1-n1cccc1,inactive: 4.12%,
Cc1csc(NC(=O)/C=C/c2ccco2)n1,inactive: 6.19%,
Cc1csc(NC(=O)c2cc(-c3ccco3)nc3ccccc23)n1,inactive: 0.0095%,
C/C(=N\NC(=O)c1cccc(S(=O)(=O)N2CCCC2)c1)c1ccco1,inactive: -5.03%,
O=C1/C(=C\c2ccc(Cl)cc2)CCC1CNc1ccc(Cl)cc1 (configuration not stated),inactive: 0.701%,
O=C(/C(C=Nc1cccc(C(F)(F)F)c1)=C(/O)c1ccco1)C(F)(F)F,inactive: -1.02%,

# As a short view, part of the list above.
SMILES,"activity change, negative = cytotoxicity",Potency
COc1cc2c(cc1Cl)/C(=C\CCN(C)C)c1ccccc1S2,inactive: -16.9%,
O=C(CSc1nc2c(sc3ccccc32)c(=O)n1-c1ccccc1)NCc1ccco1,inactive: 2.64%,
Cc1ccc(C(=O)N/N=C/c2ccc(-c3ccc(Br)cc3[N+](=O)[O-])o2)o1,inactive: 0.605%,
COc1ccc(Cc2c(-c3ccccc3)nc3c4ccccc4ccn23)c(C)c1,inactive: -9.88%,

# Following part.

SMILES,"activity change, negative = cytotoxicity",Potency
Cc1ccsc1-c1ccnc(-n2cccc2)n1,inactive: 4.55%,
Cc1cc(NC(=O)c2ccccc2F)nc2c1c(=O)oc1ccccc12,inactive: -0.116%,
S=c1[nH]nc(COc2ccccc2)n1/N=C/C(Cl)=C/c1ccccc1,inactive: 4.04%,
O=C(CC(=O)c1ccccn1)c1ccccc1,inactive: -28.7%,
O=C(C=Cc1ccccc1Cl)c1ccccc1,inactive: -10.9%,
CN(C)CCN(C(=O)/C=C/c1cccs1)c1nc2c(F)cc(F)cc2s1,inactive: -18.2%,
O=C(CSc1nnc(-c2cccnc2)o1)c1cc2ccccc2oc1=O,inactive: 0.11%,
O=C(N/N=C/c1ccco1)Nc1ccccc1,inactive: 4.52%,
O=C1Nc2ccccc2SC1=Cc1ccccc1,inactive: 1.37%,
O=C(/C=C\c1ccc2c(c1)OCO2)CC1(O)C(=O)Nc2ccccc21 (configuration not stated),inactive: 9.16%,
Cc1cc(N/N=C/c2c(O)ccc3ccccc23)nc(-c2ccccc2O)n1,inactive: -27%,
COc1cc(OC)c(OC)cc1/C=C1/Cc2ccccc2C1=O,inactive: -2.08%,
O=C(Nc1cccc(/C=C/c2ccccn2)c1)c1ccc(-n2cncn2)cc1,inactive: 8.24%,
Cc1ccc(C)c(NC(=S)c2nc3ccccc3s2)c1,inactive: -4.35%,
COC(=O)c1c(NC(=O)c2ccco2)sc(C)c1C,inactive: 8.04%,
COc1ccc(NC(=O)C2CC(=O)N/C(=N/N=C/c3ccco3)S2)cc1 (configuration not stated),inactive: 3.28%,
O=c1oc2ccccc2nc1/C=C(\O)c1ccc(Br)cc1,inactive: -1.91%,
COC(=O)c1sccc1NC(=O)c1ccc(Br)o1,inactive: 5.03%,
Clc1ccc(-c2nnc(-c3cccc4ccccc34)o2)cc1,inactive: 4.92%,
COc1ccc(-c2nnc3c4ccccc4c(C)nn23)cc1,inactive: 4.5%,
COc1ccccc1Cc1c(-c2ccco2)nc2ccc(Cl)cn12,inactive: -12.6%,
COc1ccccc1C(=O)NCc1nc2cccnc2n1Cc1ccc(F)cc1,inactive: 12.8%,
CNc1ccc(Br)cc(C(=O)/C=C/c2cccc(OC)c2)c1=O,inactive: 7.9%,
CC(=NNC(=O)CSc1nc2ccccc2o1)c1ccco1,inactive: -0.611%,
CCCc1cc(C(N)=O)c(NC(=O)c2ccco2)s1,inactive: -1.86%,
N#Cc1c(-c2ccco2)cc(-c2ccccn2)nc1N,inactive: -0.246%,

SMILES,"activity change, negative = cytotoxicity",Potency
O=C(/C=C/c1ccccc1Cl)Nc1nc(-c2cccs2)ns1,inactive: -0.488%,
O=C(Nc1ccccc1C(=O)N/N=C/c1ccco1)c1ccccc1,inactive: -18.2%,
FC(F)(F)c1cc(-c2cccs2)nc2cc(-c3cccs3)nn12,inactive: -1.01%,
Cc1nnc(NC(=O)/C=C/c2ccco2)s1,inactive: 3.4%,
Cc1cccc(C)c1NC(=S)NC(=O)c1cccc(Cl)c1,inactive: 10.1%,
Cc1sc(NC(=S)NC(=O)c2ccco2)c(C(N)=O)c1C,inactive: 3.75%,
CCOC(=O)Cc1csc(NC(=O)/C=C/c2ccco2)n1,inactive: 0.943%,
Cc1nn(C)c(C)c1/C=C(/C(=O)C(C)(C)C)n1cncn1,inactive: -1.24%,
O=C(CSc1ncnc2sc3c(c12)CCCC3)c1ccco1,inactive: -11.2%,
COc1cc2c(cc1NC(=O)c1cccc(F)c1)CCCC2,inactive: -2.03%,
O=Cc1c(Sc2ccccn2)nc2ccccn2c1=O,inactive: 9.74%,
S=c1[nH]nc(-c2ccccc2)n1/N=C/C=C/c1ccco1,inactive: 3.5%,
CCc1nc(N)c(C#N)c(-c2ccco2)c1C,inactive: -1.86%,
CC(C)Oc1ccccc1/C=N/Nc1ccccc1[N+](=O)[O-],inactive: 2.18%,
O=C(N/N=C\C=C\c1ccco1)c1cc(-c2ccc3ccccc3c2)n[nH]1,inactive: 12.2%,
Cn1c(SCC(=O)N/N=C/C=C\c2ccco2)nc2ccccc21,inactive: 2.39%,
CSc1nsc(SC)c1C(=O)Nc1ccc(Cl)cc1,inactive: -0.834%,
O=[N+]([O-])c1cc(-c2nc(-c3ccccc3)no2)ccc1NCc1cccnc1,inactive: -22.6%,
C[n+]1c2n(c3ccccc31)N=C(c1ccccc1)CS2,,inactive
N#Cc1c(-c2ccco2)cc(-c2ccc(F)cc2)nc1N,inactive: 8.67%,
Cc1ccc([N+](=O)[O-])cc1NC(=O)c1ccc(C(C)(C)C)cc1,inactive: -1.77%,
Clc1ccccc1NN=Cc1ccccn1,inactive: 1.21%,
Oc1ccccc1-c1csc(-c2ccccc2)n1,inactive: 14.2%,
COc1ccc(NC(=O)c2cc(-c3ccco3)on2)c(OC)c1,inactive: 9.38%,
O=C(Nc1nc2ccsc2c(=O)s1)c1ccco1,inactive: 0.375%,
